Test results: the supplement of paper PMC11732987, “Enantioselective OTUD7B fragment discovery through chemoproteomics screening and high-throughput optimisation” (Communications Chemistry, 2025)
The list shows a part of the results. The data scatter; read single values as rough.

Sequences of proteins named here, by UniProt entry; tags and fusion partners are left off. A change or cut given only in a name is not applied to a line headed by its entry. Residues count along the entry.
UniProt Q9NZ08: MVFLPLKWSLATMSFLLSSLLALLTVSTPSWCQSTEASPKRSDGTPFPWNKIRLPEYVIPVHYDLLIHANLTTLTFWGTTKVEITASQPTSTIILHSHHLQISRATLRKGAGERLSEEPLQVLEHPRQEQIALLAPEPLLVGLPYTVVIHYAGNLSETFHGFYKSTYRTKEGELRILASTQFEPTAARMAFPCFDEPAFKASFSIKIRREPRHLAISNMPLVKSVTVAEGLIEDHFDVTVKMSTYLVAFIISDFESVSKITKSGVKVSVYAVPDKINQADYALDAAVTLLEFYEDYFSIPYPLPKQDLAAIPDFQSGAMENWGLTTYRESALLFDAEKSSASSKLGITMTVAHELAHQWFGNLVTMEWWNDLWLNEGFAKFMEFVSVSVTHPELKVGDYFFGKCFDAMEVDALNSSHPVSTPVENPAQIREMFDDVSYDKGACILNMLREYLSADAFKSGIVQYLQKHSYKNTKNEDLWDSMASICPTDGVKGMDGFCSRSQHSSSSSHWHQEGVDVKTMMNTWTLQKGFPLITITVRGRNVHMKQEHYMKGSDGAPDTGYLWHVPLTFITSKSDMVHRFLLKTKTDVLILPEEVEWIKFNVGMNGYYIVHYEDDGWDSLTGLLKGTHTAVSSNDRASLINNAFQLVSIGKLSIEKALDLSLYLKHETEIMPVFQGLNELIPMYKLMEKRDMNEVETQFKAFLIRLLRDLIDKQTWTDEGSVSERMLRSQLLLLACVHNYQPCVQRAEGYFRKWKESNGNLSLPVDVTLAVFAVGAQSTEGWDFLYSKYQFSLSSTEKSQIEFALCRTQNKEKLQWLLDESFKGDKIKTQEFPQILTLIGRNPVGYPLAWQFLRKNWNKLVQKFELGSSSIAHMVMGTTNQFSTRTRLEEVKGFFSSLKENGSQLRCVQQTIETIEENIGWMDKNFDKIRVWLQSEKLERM
UniProt Q9H4H8: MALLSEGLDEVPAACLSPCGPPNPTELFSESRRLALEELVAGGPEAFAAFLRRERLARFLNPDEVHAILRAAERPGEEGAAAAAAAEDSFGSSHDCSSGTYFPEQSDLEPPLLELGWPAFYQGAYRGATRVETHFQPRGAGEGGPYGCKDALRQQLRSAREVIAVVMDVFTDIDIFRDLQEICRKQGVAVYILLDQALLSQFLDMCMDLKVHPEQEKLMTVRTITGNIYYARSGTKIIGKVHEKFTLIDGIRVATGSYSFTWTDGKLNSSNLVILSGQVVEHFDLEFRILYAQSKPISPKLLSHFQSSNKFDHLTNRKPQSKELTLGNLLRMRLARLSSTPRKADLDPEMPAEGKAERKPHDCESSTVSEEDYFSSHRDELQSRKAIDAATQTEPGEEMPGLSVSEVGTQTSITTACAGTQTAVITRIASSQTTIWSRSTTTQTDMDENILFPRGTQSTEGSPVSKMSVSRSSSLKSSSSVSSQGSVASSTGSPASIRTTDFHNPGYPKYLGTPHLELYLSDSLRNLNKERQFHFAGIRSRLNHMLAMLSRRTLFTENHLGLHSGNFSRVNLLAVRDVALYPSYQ
UniProt Q9BV81: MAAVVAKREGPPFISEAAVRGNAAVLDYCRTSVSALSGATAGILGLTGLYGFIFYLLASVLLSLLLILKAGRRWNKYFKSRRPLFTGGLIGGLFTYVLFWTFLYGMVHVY
UniProt Q9BXW9: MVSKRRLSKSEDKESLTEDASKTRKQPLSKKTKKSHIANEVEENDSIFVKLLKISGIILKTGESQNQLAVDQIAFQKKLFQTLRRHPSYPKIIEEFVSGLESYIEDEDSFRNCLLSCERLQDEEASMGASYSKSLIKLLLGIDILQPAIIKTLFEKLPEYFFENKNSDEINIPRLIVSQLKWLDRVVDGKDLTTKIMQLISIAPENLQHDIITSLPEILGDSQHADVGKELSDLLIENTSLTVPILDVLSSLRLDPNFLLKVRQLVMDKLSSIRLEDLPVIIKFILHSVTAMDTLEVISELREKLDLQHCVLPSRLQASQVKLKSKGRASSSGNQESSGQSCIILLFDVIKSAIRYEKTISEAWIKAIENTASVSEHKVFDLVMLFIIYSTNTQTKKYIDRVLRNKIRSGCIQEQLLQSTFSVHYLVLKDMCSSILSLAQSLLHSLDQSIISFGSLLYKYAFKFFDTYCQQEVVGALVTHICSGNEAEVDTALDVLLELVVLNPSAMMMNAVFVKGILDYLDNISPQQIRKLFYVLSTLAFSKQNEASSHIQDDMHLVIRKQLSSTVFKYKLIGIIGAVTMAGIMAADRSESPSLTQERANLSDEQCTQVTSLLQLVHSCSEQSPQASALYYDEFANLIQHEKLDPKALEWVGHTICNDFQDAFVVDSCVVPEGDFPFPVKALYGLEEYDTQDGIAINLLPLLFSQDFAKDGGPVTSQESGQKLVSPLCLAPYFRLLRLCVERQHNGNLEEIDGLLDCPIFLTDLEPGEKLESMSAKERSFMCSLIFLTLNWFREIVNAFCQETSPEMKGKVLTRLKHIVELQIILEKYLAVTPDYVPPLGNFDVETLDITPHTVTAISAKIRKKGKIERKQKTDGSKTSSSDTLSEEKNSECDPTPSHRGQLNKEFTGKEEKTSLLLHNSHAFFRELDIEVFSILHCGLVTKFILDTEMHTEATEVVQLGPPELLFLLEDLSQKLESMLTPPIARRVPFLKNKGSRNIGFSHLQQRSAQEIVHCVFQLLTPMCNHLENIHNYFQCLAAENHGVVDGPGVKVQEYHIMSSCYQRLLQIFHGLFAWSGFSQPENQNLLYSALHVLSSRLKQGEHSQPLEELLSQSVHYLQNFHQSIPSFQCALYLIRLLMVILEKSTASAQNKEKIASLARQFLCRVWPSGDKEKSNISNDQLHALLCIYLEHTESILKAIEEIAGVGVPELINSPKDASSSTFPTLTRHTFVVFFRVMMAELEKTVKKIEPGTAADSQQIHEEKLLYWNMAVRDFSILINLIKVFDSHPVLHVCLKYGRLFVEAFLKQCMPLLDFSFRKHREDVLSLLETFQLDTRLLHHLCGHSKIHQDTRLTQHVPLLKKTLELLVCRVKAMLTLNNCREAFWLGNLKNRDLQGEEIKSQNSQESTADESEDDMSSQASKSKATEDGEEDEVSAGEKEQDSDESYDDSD
UniProt Q96CS3: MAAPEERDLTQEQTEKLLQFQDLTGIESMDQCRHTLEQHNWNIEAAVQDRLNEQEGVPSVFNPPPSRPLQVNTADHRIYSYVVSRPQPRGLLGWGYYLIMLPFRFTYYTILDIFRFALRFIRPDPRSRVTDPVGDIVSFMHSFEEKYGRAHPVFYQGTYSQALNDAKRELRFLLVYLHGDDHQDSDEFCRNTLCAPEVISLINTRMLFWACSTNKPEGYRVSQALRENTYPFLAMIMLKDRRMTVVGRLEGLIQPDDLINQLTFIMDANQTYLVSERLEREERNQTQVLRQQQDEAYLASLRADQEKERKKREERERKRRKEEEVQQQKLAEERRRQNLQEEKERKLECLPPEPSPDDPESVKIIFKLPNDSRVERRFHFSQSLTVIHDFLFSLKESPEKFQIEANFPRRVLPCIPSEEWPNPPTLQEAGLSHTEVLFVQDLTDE
UniProt Q9NQT4, whole entry, looked up: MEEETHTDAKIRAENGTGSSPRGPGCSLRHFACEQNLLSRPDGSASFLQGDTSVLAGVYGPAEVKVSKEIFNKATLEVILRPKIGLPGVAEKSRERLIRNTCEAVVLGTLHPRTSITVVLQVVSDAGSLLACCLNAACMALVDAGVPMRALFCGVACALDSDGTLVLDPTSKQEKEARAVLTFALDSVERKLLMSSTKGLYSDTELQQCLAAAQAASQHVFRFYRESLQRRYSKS
UniProt Q9BS26: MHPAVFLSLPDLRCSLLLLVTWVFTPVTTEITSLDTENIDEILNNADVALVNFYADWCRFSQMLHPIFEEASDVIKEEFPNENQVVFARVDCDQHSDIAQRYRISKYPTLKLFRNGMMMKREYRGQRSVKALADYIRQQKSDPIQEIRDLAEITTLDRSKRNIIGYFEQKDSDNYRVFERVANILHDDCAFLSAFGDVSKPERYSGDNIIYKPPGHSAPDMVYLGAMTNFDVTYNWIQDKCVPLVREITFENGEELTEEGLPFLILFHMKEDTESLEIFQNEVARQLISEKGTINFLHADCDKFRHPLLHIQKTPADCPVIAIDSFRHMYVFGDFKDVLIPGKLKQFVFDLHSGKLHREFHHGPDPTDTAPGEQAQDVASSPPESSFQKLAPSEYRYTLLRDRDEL
UniProt Q9NV70: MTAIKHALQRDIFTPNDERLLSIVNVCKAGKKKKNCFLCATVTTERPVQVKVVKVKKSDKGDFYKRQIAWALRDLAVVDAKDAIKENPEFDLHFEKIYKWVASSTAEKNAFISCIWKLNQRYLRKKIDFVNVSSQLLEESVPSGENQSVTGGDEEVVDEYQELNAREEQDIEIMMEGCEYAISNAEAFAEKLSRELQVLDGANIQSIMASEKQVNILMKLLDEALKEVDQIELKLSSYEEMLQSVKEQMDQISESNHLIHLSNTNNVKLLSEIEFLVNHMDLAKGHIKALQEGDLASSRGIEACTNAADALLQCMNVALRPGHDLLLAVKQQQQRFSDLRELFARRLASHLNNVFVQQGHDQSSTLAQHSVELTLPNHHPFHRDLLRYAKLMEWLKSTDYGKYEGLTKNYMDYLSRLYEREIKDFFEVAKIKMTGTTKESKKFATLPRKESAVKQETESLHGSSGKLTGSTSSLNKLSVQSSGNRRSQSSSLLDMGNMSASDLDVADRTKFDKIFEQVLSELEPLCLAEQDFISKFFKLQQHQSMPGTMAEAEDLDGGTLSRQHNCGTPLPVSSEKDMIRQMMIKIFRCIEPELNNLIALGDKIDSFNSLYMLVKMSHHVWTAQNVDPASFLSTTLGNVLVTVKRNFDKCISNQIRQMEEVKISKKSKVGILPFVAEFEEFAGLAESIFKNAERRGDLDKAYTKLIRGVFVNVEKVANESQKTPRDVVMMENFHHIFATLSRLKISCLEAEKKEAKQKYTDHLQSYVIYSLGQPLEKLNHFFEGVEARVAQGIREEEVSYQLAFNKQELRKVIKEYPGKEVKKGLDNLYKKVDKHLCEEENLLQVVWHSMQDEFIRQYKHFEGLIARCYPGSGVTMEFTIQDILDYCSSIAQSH
UniProt Q15024, 71-96: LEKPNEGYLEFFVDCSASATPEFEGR
UniProt Q8N0U4: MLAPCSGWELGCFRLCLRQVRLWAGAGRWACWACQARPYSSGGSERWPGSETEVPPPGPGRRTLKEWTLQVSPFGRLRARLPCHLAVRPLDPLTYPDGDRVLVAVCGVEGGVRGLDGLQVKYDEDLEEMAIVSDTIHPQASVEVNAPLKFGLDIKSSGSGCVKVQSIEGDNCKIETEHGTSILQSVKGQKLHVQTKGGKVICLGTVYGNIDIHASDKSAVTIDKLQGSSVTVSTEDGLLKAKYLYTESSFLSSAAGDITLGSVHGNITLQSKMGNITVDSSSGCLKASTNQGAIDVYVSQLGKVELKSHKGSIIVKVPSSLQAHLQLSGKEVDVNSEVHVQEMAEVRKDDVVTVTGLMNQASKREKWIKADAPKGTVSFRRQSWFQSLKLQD
UniProt Q9BYI3: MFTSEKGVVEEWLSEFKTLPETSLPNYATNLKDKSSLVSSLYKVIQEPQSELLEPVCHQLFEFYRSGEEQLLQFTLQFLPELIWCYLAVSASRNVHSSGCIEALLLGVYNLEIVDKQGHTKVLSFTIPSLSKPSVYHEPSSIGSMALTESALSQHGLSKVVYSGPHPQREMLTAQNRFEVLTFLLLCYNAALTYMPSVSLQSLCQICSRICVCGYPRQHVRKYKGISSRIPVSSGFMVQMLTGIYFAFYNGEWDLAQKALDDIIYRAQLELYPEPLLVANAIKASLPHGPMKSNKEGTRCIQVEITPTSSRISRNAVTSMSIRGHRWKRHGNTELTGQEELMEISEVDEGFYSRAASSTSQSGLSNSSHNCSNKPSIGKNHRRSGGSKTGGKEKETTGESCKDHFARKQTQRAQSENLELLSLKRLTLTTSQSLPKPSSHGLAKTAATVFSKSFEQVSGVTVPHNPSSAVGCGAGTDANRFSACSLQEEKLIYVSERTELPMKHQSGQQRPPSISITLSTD
UniProt Q6P1L5: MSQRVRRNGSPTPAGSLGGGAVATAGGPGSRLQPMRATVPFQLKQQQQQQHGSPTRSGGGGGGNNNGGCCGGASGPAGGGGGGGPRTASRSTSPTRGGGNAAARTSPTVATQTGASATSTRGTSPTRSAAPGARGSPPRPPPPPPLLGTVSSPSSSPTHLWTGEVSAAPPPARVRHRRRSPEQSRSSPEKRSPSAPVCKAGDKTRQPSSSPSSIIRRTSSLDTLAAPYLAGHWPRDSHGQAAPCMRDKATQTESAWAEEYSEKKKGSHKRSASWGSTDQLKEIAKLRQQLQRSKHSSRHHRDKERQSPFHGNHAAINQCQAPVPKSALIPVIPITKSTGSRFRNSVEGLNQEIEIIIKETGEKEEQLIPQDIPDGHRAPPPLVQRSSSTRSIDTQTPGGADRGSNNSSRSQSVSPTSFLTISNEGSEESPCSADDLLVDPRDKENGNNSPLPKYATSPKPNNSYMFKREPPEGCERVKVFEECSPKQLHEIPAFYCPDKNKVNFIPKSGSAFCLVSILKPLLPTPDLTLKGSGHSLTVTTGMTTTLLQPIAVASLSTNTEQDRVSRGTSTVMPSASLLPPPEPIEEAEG

Compound: ClCC(=O)N[C@@H]1CCCc2ccccc12
Assay: log2 mean competition ratio of IA-DTB cysteine labelling (DMSO/compound) (log2 ratio); higher = stronger cysteine engagement by compound
Conditions: 50 µM; treatment time: 4 h; cell line lysate: HEK293T
Experimental: (§1)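 IA-DTB competitive cysteine chemoproteomics in HEK293T RIPA lysate. Lysates were treated with compound 29 or 30 at 50 or 200 µM for 4 h, then IA-DTB (500 µM, 1 h), trypsin-digested, NeutrAvidin-enriched and analysed by diaPASEF. Competition ratio = intensity DMSO / intensity compound (n=4 treated, n=64 DMSO); binding: mean log2 CR ≥ 1 and p ≤ 0.05 plus QC filters. Target is the cysteine site.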

Row | Target | log2 mean competition ratio
1 | FAM8A1 C38 (UniProt Q9UBU6) | -0.0854
2 | FAM98C C340 (UniProt Q17RN3) | -0.000554
3 | ERAP1 C498 (UniProt Q9NZ08) | 0.0922
4 | FAM83D C148 (UniProt Q9H4H8) | 0.0789
5 | EML3 C816 (UniProt Q32P44) | -0.263
6 | ERCC6L C356 (UniProt Q2NKX8) | -0.499
7 | ENKD1 C171 (UniProt Q9H0I2) | -0.0786
8 | ERCC4 C242 (UniProt Q92889) | 0.299
9 | EMC6 C29 (UniProt Q9BV81) | 0.135
10 | FANCD2 C893 (UniProt Q9BXW9) | -0.205
11 | FAM136A C53 (UniProt Q96C01) | -0.113
12 | EPB41 C179 | -0.151
13 | FAM76A C7 (UniProt Q8TAV0) | -0.276
14 | FANCI C594 (UniProt Q9NVI1) | -0.0217
15 | FAF2 C194 (UniProt Q96CS3) | -0.109
16 | EPS8 C331 | -0.0588
17 | ELMO1 C561 (UniProt Q92556) | 0.317
18 | EXOSC5 C26 (UniProt Q9NQT4) | -0.0749
19 | ERCC2 C588 (UniProt P18074) | -0.0691

Row | Target | log2 mean competition ratio
20 | ERP44 C92 (UniProt Q9BS26) | -0.183
21 | EXPH5 C1081 | -0.21
22 | ENPP1 C6 | -0.21
23 | EXOC1 C650 (UniProt Q9NV70) | 0.356
24 | FAM3C C185 (UniProt Q92520) | 0.059
25 | FANCI C56 (UniProt Q9NVI1) | 0.135
26 | ERCC4 C176 (UniProt Q92889) | 0.0059
27 | EMILIN3 C700 | -0.0409
28 | EXOSC7 C85 (UniProt Q15024) | 0.0684
29 | EXOC3 C150 (UniProt O60645) | 0.0622
30 | FAM185A C106 (UniProt Q8N0U4) | 0.182
31 | EPRS1 C660 | -0.17
32 | FAM126A C300 (UniProt Q9BYI3) | -0.0928
33 | FAM117B C244 (UniProt Q6P1L5) | 0.134
34 | ERC1 C258 | -0.118
35 | FAM120A C694 | 0.375
36 | ERCC6L C1222 (UniProt Q2NKX8) | 0.108
37 | ERCC3 C342 (UniProt P19447) | -0.047

Same assay, conditions: 200 µM; treatment time: 4 h; cell line lysate: HEK293T

Row | Target | log2 mean competition ratio
38 | FAM8A1 C38 (UniProt Q9UBU6) | -0.1
39 | FAM98C C340 (UniProt Q17RN3) | -0.00597
40 | ERAP1 C498 (UniProt Q9NZ08) | 0.315
41 | FAM83D C148 (UniProt Q9H4H8) | -0.102
42 | EML3 C816 (UniProt Q32P44) | -0.0953
43 | ERCC6L C356 (UniProt Q2NKX8) | -0.137
44 | ENKD1 C171 (UniProt Q9H0I2) | 0.183
45 | ERCC4 C242 (UniProt Q92889) | 0.0771
46 | EMC6 C29 (UniProt Q9BV81) | -0.134
47 | FANCD2 C893 (UniProt Q9BXW9) | 0.191
48 | FAM136A C53 (UniProt Q96C01) | 0.125
49 | EPB41 C179 | -0.0944
50 | FAM76A C7 (UniProt Q8TAV0) | -0.195
51 | FANCI C594 (UniProt Q9NVI1) | -0.0152
52 | FAF2 C194 (UniProt Q96CS3) | 0.06
53 | EPS8 C331 | 0.121
54 | ELMO1 C561 (UniProt Q92556) | 0.345
55 | EXOSC5 C26 (UniProt Q9NQT4) | -0.00494
56 | ERCC2 C588 (UniProt P18074) | -0.107

Row | Target | log2 mean competition ratio
57 | ERP44 C92 (UniProt Q9BS26) | 0.0281
58 | EXPH5 C1081 | 0.17
59 | ENPP1 C6 | 0.211
60 | EXOC1 C650 (UniProt Q9NV70) | 0.0668
61 | FAM3C C185 (UniProt Q92520) | -0.067
62 | FANCI C56 (UniProt Q9NVI1) | -0.018
63 | ERCC4 C176 (UniProt Q92889) | 0.342
64 | EMILIN3 C700 | 0.491
65 | EXOSC7 C85 (UniProt Q15024) | -0.265
66 | EXOC3 C150 (UniProt O60645) | 0.169
67 | FAM185A C106 (UniProt Q8N0U4) | 0.147
68 | EPRS1 C660 | 0.057
69 | FAM126A C300 (UniProt Q9BYI3) | -0.186
70 | FAM117B C244 (UniProt Q6P1L5) | 0.0274
71 | ERC1 C258 | 0.054
72 | FAM120A C694 | 0.259
73 | ERCC6L C1222 (UniProt Q2NKX8) | 0.0236
74 | ERCC3 C342 (UniProt P19447) | -0.0725

Compound: ClCC(=O)N[C@H]1CCCc2ccccc12
Assay: as above
Conditions: 50 µM; treatment time: 4 h; cell line lysate: HEK293T
Experimental: as §1

Row | Target | log2 mean competition ratio
75 | FAM8A1 C38 (UniProt Q9UBU6) | 0.137
76 | FAM98C C340 (UniProt Q17RN3) | 0.253
77 | ERAP1 C498 (UniProt Q9NZ08) | 0.0177
78 | FAM83D C148 (UniProt Q9H4H8) | -0.204
79 | EML3 C816 (UniProt Q32P44) | -0.397
80 | ERCC6L C356 (UniProt Q2NKX8) | -0.247
81 | ENKD1 C171 (UniProt Q9H0I2) | -0.581
82 | ERCC4 C242 (UniProt Q92889) | -0.483
83 | EMC6 C29 (UniProt Q9BV81) | 0.576
84 | FANCD2 C893 (UniProt Q9BXW9) | -0.181
85 | FAM136A C53 (UniProt Q96C01) | 0.178
86 | EPB41 C179 | -0.153
87 | FAM76A C7 (UniProt Q8TAV0) | 0.189
88 | FANCI C594 (UniProt Q9NVI1) | -0.187
89 | FAF2 C194 (UniProt Q96CS3) | -0.139
90 | EPS8 C331 | -0.226
91 | ELMO1 C561 (UniProt Q92556) | 0.318
92 | EXOSC5 C26 (UniProt Q9NQT4) | -0.0746
93 | ERCC2 C588 (UniProt P18074) | -0.221

Row | Target | log2 mean competition ratio
94 | ERP44 C92 (UniProt Q9BS26) | -0.259
95 | EXPH5 C1081 | -0.103
96 | ENPP1 C6 | -0.0912
97 | EXOC1 C650 (UniProt Q9NV70) | 0.381
98 | FAM3C C185 (UniProt Q92520) | 0.213
99 | FANCI C56 (UniProt Q9NVI1) | 0.128
100 | ERCC4 C176 (UniProt Q92889) | -0.0074
101 | EMILIN3 C700 | 0.147
102 | EXOSC7 C85 (UniProt Q15024) | 0.165
103 | EXOC3 C150 (UniProt O60645) | 0.203
104 | FAM185A C106 (UniProt Q8N0U4) | 0.171
105 | EPRS1 C660 | -0.546
106 | FAM126A C300 (UniProt Q9BYI3) | -0.1
107 | FAM117B C244 (UniProt Q6P1L5) | 0.246
108 | ERC1 C258 | 0.028
109 | FAM120A C694 | 0.616
110 | ERCC6L C1222 (UniProt Q2NKX8) | 0.0277
111 | ERCC3 C342 (UniProt P19447) | 0.691
